The list is a part of this screen's results and no random one: it gathers some chemical classes. Other doses and runs of a compound may be missing. T/C: endpoint of the treated group in % of that of the vehicle group. Schedule codes are those of the source, taken here to give the interval after Q, in days (D) or hours (H), and the number of doses after X. Some entries show no survivor count and are marked so; the dose need not have been tolerated. Some T/C values are negative: the treated tumours shrank. Some entries were tested several times; their values stand side by side, smallest first.
System: MX-1 breast xenograft, nude mice, tumor weight T/C
Assay: NCI In Vivo Anticancer Drug Screen. Data for tumor model Human Mammary Carcinoma MX-1 Xenograft (intrarenal inoculation) in NU/NU Swiss (nude) mice
Conditions: T/C endpoint: mean tumor weight change, evaluated on day 11, higher T/C = larger tumour
Experimental: The antitumor activity of compounds was measured in mice bearing transplantable tumors. Survival or tumor size were measured and the results are expressed as the measurement made in the treated group (T) divided by the measurement made in the vehicle treated control group (C). The tumor model used in this assay is Human Mammary Carcinoma MX-1 Xenograft (intrarenal inoculation) in NU/NU Swiss (nude) mice

[1] = dose: 0.12 mg/kg/injection, schedule: Q01DX010 (sc), vehicle: Klucel (hydroxypropylcellulose) (HPC)
[2] = dose: 0.25 mg/kg/injection, schedule: Q01DX010 (sc), vehicle: Klucel (hydroxypropylcellulose) (HPC)
[3] = dose: 0.5 mg/kg/injection, schedule: Q01DX010 (sc), vehicle: Klucel (hydroxypropylcellulose) (HPC)
[4] = dose: 1.0 mg/kg/injection, schedule: Q01DX010 (sc), vehicle: Klucel (hydroxypropylcellulose) (HPC)

Structure (SMILES): CC1=C[C@H]2O[C@@H]3[C@H](O)[C@@H](O)[C@](C)([C@@]2(CO)CC1)[C@@]31CO1
- T/C (dose: 2.0 mg/kg/injection, schedule: Q01DX010 (sc), vehicle: saline): 163 % of control [survivor count not shown]

Structure (SMILES): CC(=O)OCC12CCC(C)=CC1OC1C(O)C(OC(C)=O)C2(C)C12CO2 (stereo unspecified)
- T/C (dose: 0.13 mg/kg/injection, schedule: Q01DX010 (sc), vehicle: saline): 140 % of control [survivor count not shown]
- T/C (dose: 0.25 mg/kg/injection, schedule: Q01DX010 (sc), vehicle: saline): 128 % of control [survivor count not shown]

Structure (SMILES): C=C(C)C(=O)OCC12CCC(C)=CC1OC1C(=O)C(OC(=O)C(=C)C)C2(C)C12CO2 (stereo unspecified)
- T/C (dose: 4.0 mg/kg/injection, schedule: Q04DX003 (sc), vehicle: saline with Tween-80): 98 % of control [survivor count not shown]
- T/C (dose: 8.0 mg/kg/injection, schedule: Q04DX003 (sc), vehicle: saline with Tween-80): 102 % of control [survivor count not shown]

Structure (SMILES): C[C@@H](O)[C@H]1/C=C/C=C\C(=O)O[C@@H]2C[C@H]3O[C@@H]4[C@@H]5OC5(C)CCC4(COC(=O)[C@H]4O[C@]4(C)[C@@H](O)CO1)[C@]2(C)[C@]31CO1 (stereo partly specified)
- T/C (dose: 2.5 mg/kg/injection, schedule: Q01DX010 (sc), vehicle: saline + alcohol): 165 % of control [survivor count not shown]
- T/C (dose: 5.0 mg/kg/injection, schedule: Q01DX010 (sc), vehicle: saline + alcohol): 120 [survivor count not shown] and 273 % of control [survivor count not shown]
- T/C (dose: 10.0 mg/kg/injection, schedule: Q01DX010 (sc), vehicle: saline + alcohol): -48 [survivor count not shown], 78 [survivor count not shown], 166 % of control [survivor count not shown]
- T/C (dose: 20.0 mg/kg/injection, schedule: Q01DX010 (sc), vehicle: saline + alcohol): 61 [survivor count not shown] and 65 % of control [survivor count not shown]
- T/C (dose: 40.0 mg/kg/injection, schedule: Q01DX010 (sc), vehicle: saline + alcohol): 55 % of control [survivor count not shown]

Structure (SMILES): CC1=CC2OC3CC4OC(=O)/C=C/C=C/C(C(C)O)OCC(O)C(C)CC(=O)OCC2(CC1O)C4(C)C31CO1 (stereo unspecified)
- T/C (dose: 0.06 mg/kg/injection, schedule: Q01DX010 (sc), vehicle: Klucel (hydroxypropylcellulose) (HPC)): 491 % of control [survivor count not shown]
- T/C [1]: 509 % of control [survivor count not shown]
- T/C [2]: 97 % of control [survivor count not shown]
- T/C [3]: 124 [survivor count not shown] and 240 % of control [survivor count not shown]
- T/C [4]: 60 % of control [survivor count not shown]

Structure (SMILES): CC1=C[C@H]2O[C@@H]3C[C@H]4OC(=O)/C=C\C=C\C(C(C)O)OCC(O)C(C)CC(=O)OC[C@@]2(C[C@@H]1O)[C@]4(C)[C@@]31CO1 (stereo partly specified)
- T/C [1]: 55 % of control [survivor count not shown]
- T/C [2]: 32 [survivor count not shown] and 80 % of control [survivor count not shown]
- T/C [3]: 91 [survivor count not shown] and 113 % of control [survivor count not shown]
- T/C [4]: -29 [survivor count not shown], 16 [survivor count not shown], 37 [survivor count not shown], 128 % of control [survivor count not shown]
- T/C (dose: 2.0 mg/kg/injection, schedule: Q01DX010 (sc), vehicle: Klucel (hydroxypropylcellulose) (HPC)): 34 [survivor count not shown] and 47 % of control [survivor count not shown]

Structure (SMILES): CC(=O)OC[C@]12CC(=O)C(C)=C[C@H]1O[C@@H]1C(=O)[C@@H](OC(C)=O)[C@@]2(C)[C@@]12CO2
- T/C (dose: 2.0 mg/kg/injection, schedule: Q04DX003 (sc), vehicle: water): 72 % of control [survivor count not shown]
